Laboratory results published in PMC4463469.

Experiments:
[1] = target: T1, Cox17 fusion protein with a C-terminal FLAG tag (S. cerevisiae) (UniProt Q12287); assay: co-IP; anti-FLAG M2 affinity gel on yeast cell extracts (French press, 1% digitonin, 20 mM Tris-HCl pH 7.4, 50 mM NaCl, 50 mM iodoacetamide), 1.5 h at 4 °C; Western blot of eluate; wild-type, mic60Δ, mic10Δ and sco1Δ cells; cells grown with or without 2.2 mM copper sulfate
T1 sequence: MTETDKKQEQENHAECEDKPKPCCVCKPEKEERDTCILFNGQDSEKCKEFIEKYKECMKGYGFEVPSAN

[2] = target: T1, Cox17 fusion protein with a C-terminal FLAG tag (S. cerevisiae); assay: co-IP; anti-FLAG M2 affinity gel on isolated wild-type mitochondria solubilized in 1% digitonin, 10% glycerol, 20 mM Tris-HCl pH 7.4, 300 mM NaCl, 50 mM iodoacetamide; Western blot of eluate

## Sco1
[1]
  binding: binds
[2]
  binding: binds

These are yes or no findings as the source states them, for the method shown. Binding seen in cells or lysates may run through a third protein. Binding calls can cover weak binding; strength is not graded here. Where a sequence is shown, tags or fusion partners need not be part of it.
